# This is one part of the list. Most entries show no effect beyond the scatter of the controls.
# Protein sequences, listed by entry. Tags and fused reporters are not part of them. Lines headed by an entry give the natural chain unless they say otherwise; changes in a name come on top.
# UniProt Q99JY0: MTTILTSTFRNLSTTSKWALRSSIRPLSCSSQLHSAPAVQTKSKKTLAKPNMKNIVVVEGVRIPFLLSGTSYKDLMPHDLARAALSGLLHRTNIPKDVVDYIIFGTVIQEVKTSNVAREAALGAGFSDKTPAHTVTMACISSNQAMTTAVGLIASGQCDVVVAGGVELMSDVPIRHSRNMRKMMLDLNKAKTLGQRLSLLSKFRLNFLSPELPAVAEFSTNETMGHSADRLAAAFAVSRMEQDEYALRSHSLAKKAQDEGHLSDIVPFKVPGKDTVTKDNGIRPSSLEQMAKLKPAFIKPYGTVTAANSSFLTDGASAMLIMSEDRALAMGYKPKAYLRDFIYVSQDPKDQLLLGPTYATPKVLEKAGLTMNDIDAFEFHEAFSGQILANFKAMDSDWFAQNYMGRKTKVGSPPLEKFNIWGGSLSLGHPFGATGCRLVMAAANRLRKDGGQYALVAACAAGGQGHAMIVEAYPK
# UniProt Q9CPT5: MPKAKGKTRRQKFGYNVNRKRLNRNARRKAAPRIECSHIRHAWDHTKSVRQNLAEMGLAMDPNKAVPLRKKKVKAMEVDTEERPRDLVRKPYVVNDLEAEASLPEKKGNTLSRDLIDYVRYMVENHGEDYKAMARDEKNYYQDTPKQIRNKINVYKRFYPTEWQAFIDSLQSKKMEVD
# UniProt Q99MI1: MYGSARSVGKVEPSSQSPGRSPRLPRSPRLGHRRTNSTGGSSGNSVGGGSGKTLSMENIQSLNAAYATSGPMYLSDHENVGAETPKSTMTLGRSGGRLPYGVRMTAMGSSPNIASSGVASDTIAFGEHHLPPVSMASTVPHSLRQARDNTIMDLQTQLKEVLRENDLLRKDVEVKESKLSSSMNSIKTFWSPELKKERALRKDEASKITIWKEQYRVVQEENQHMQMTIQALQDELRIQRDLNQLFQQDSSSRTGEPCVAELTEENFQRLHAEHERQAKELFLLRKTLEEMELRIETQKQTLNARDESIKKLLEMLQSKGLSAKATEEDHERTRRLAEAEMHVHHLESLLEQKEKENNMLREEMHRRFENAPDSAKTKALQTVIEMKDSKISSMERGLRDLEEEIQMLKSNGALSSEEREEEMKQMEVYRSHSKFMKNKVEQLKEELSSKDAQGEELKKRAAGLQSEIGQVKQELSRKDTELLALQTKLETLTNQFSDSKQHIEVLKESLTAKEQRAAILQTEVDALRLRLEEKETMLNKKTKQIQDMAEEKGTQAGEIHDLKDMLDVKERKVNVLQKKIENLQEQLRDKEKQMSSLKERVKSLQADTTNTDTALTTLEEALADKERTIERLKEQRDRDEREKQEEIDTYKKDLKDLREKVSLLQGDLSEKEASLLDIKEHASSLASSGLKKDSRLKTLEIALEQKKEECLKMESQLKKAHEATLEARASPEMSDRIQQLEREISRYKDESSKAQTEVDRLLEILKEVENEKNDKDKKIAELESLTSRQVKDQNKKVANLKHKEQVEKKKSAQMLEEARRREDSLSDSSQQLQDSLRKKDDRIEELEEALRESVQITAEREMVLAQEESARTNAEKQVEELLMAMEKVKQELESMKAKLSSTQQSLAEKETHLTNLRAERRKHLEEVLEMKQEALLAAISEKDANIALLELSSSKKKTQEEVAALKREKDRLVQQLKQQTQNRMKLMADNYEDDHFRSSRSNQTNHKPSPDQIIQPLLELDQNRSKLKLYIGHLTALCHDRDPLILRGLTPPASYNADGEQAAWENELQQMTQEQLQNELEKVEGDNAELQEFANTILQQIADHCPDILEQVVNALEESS
# UniProt Q9CQZ6: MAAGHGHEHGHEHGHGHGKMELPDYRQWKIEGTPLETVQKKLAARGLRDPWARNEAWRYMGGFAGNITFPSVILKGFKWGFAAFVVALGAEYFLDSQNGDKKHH
# UniProt Q9CR62: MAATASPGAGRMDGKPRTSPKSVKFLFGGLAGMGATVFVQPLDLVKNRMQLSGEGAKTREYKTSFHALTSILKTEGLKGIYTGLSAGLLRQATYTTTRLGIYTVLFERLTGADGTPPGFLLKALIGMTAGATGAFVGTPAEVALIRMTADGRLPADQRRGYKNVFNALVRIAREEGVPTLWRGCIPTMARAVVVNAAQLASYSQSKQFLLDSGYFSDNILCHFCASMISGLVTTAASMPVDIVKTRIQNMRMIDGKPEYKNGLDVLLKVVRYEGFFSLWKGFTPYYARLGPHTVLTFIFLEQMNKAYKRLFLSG
# UniProt Q9CRB6: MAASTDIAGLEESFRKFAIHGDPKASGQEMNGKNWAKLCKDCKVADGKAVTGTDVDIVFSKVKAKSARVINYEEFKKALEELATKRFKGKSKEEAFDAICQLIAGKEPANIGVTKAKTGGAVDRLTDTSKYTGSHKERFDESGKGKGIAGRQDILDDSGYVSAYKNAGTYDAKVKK
# UniProt Q9CQS8, whole entry: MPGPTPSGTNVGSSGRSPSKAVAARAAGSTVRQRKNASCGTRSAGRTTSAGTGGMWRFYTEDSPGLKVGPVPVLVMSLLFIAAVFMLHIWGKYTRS
# UniProt Q99KE1: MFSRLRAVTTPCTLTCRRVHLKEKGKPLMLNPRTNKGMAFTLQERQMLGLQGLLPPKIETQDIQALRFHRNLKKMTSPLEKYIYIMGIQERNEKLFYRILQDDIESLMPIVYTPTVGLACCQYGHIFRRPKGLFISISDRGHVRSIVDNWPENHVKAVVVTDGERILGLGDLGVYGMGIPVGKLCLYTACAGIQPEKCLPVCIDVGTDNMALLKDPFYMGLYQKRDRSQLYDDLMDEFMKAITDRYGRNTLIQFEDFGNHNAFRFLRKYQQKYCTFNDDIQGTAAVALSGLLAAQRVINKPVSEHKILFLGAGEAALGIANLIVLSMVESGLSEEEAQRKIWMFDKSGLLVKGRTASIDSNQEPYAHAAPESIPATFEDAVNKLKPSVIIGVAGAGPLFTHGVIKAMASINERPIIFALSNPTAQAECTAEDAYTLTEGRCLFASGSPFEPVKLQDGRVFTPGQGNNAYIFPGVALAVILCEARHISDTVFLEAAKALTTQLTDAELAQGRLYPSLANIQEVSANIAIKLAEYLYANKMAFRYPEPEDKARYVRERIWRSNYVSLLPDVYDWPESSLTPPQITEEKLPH
# UniProt Q9CWU6: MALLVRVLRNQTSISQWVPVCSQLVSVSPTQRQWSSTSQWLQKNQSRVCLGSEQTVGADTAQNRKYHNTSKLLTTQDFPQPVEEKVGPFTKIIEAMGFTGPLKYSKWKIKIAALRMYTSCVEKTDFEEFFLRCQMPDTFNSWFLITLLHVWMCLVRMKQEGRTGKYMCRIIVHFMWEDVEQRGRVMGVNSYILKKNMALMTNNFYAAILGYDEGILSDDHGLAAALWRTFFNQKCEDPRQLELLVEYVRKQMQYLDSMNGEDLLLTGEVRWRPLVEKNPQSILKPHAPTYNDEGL
# UniProt Q99LR1: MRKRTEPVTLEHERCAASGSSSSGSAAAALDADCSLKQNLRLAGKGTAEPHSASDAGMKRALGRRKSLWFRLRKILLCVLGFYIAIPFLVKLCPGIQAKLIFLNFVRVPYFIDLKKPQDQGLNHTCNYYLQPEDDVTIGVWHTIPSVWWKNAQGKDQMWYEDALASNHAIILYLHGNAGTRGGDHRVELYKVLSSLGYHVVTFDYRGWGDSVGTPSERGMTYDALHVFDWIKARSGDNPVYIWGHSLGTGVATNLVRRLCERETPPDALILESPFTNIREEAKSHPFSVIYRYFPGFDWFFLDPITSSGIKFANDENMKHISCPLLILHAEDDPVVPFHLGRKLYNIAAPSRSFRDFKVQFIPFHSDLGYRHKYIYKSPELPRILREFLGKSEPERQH
# UniProt Q9CXE7: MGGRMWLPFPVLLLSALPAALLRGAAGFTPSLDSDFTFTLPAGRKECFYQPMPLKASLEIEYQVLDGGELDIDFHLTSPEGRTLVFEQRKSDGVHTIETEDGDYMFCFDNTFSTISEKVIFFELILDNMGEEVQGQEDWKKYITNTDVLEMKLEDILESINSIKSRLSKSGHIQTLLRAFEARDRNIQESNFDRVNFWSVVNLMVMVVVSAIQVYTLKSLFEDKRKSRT
# UniProt Q99MN9: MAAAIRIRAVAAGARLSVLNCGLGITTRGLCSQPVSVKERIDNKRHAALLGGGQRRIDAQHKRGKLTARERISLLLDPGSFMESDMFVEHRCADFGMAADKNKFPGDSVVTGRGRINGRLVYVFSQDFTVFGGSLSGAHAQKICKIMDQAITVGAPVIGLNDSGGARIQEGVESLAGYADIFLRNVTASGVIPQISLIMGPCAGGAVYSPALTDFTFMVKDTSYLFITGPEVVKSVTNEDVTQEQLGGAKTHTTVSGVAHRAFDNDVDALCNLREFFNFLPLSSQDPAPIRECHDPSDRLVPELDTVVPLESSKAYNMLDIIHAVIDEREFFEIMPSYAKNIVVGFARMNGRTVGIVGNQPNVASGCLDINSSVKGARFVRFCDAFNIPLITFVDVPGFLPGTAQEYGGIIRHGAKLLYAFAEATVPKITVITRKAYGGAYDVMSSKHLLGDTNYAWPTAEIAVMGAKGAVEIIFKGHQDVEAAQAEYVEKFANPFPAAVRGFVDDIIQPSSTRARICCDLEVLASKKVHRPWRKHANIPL
# UniProt Q9CQN1: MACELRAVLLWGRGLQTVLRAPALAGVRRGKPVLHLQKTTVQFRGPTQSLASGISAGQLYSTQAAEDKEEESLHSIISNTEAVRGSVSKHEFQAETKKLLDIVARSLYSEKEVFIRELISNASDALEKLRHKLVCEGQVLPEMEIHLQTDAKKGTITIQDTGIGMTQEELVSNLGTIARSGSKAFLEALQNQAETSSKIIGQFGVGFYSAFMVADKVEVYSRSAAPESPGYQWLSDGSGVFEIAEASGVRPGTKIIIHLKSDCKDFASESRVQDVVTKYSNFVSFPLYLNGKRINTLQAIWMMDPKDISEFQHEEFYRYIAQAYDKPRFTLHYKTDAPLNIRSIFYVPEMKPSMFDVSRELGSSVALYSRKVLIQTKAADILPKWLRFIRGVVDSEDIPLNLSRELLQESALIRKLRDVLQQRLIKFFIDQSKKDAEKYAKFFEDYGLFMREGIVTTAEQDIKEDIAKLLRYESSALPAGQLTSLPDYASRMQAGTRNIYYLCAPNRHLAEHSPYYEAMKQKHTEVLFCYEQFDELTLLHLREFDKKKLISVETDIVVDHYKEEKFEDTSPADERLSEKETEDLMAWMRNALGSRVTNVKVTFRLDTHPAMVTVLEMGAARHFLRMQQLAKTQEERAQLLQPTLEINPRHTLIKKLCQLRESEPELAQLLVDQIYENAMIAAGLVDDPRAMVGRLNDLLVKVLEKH
# UniProt Q99NB9: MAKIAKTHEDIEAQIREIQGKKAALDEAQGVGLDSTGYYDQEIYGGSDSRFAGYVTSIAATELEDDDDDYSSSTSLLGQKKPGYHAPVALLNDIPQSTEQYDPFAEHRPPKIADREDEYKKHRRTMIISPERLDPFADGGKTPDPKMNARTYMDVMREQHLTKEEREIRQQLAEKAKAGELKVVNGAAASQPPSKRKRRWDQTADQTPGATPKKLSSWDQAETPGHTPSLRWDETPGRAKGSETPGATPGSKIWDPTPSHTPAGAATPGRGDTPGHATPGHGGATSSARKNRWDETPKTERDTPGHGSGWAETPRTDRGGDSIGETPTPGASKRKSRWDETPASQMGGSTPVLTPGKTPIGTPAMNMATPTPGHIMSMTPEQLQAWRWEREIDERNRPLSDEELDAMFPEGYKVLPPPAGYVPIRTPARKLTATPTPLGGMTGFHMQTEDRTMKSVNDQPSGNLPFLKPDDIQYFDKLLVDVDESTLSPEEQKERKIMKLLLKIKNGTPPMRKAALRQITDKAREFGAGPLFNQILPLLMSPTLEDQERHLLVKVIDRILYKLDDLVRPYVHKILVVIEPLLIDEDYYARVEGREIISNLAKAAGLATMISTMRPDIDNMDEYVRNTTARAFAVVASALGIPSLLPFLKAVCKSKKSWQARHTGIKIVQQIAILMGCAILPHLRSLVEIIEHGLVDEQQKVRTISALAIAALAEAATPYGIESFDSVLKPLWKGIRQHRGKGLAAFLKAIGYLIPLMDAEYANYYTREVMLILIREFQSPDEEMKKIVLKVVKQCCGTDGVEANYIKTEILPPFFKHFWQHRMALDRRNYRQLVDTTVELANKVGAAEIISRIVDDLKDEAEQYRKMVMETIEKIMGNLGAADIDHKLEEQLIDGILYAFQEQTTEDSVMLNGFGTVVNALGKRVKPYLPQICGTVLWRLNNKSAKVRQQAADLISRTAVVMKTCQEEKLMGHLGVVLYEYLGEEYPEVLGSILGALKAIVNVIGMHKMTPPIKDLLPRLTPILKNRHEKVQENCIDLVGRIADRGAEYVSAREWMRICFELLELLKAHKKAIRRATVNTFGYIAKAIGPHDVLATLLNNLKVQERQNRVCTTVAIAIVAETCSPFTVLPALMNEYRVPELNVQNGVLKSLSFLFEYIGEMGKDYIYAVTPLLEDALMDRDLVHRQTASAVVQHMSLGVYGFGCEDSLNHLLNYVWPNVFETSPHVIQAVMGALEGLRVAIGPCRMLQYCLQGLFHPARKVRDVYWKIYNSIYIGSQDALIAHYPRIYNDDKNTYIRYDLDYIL
# Compound: CN[C@@H]1C[C@H]2O[C@@](C)([C@@H]1OC)n1c3ccccc3c3c4c(c5c6ccccc6n2c5c31)C(=O)NC4 [staurosporine]
# Assay: log2 fold change of pooled soluble protein (PISA), ligand vs vehicle (log2 ratio); higher = more thermally stabilized
# Conditions: ligand concentration: 20 uM; assay format: PISA pool 52.9/55.5/58.6 C
row,Target,log2 fold change of pooled soluble protein
1,UniProt Q99JY0,-0.151
2,UniProt Q9CPT5,0.111
3,UniProt Q9CQE5,-0.0763
4,UniProt Q99MI1,0.036
5,UniProt Q9CQZ6,-0.0397
6,UniProt Q99MZ3,-0.0927
7,UniProt Q9CR62,0.0187
8,UniProt Q99L47,-0.0385
9,UniProt Q9CQ48,0.0354
10,UniProt Q9CRB6,0.073
11,UniProt Q99L88,0.0602
12,UniProt Q9CQB5,-0.104
13,UniProt Q9CQS8,0.0163
14,UniProt Q99KE1,-0.12
15,UniProt Q9CWU6,0.119
16,UniProt Q99LR1,-0.0822
17,UniProt Q99KP6,-0.0103
18,UniProt Q9CPV4,-0.0533

row,Target,log2 fold change of pooled soluble protein
1,UniProt Q9CWM4,-0.396
2,UniProt Q9CR68,0.057
3,UniProt Q99LB6,-0.139
4,UniProt Q9CQV4,-0.118
5,UniProt Q9CWZ7,-0.0238
6,UniProt Q9BCZ4,-0.17
7,UniProt Q9CXE7,0.0264
8,UniProt Q99L43,0.0939
9,UniProt Q99KG3,-0.0105
10,UniProt Q9CW03,-0.115
11,UniProt Q9CR00,0.000508
12,UniProt Q99KK7,0.0404
13,UniProt Q9CQX5,0.00753
14,UniProt Q99K70,0.0931
15,UniProt Q99MN9,0.00342
16,UniProt Q9CR23,-0.192
17,UniProt Q9CQN1,0.0879
18,UniProt Q99NB9,-0.122

# Pulled one by one from the entries so far (2):
row,Target,log2 fold change of pooled soluble protein
10,UniProt Q9CW03,-0.115
17,UniProt Q9CQN1,0.0879

# Reference: the supplement of paper PMC12819154, “High-throughput peptide-centric local stability assay extends protein–ligand identification to membrane proteins, tissues and bacteria” (Nature Structural & Molecular Biology, 2025)
